Some peptides are written in HELM: one residue between dots, names in brackets for other building blocks, links after the first $.

A short description of one data set: general procedure: Fmoc solid-phase peptide synthesis; Rink amide AM resin (0.60 meq/g); Rink amide resin (0.100 g, loading capacity 0.34 mmol/g); Oxyma Pure/DIC; HBTU/DIPEA for DP-7-11 and DP-7-12. As to conditions: whole synthesis, 219 nm.
Turning to PEPTIDE1{Y.G.G.F.L.R.R.[am]}$$$$V2.0, the “final HPLC purity” value stood at 99.2%. “c(Tyr-Gly-Gly-Phe-D(Asp)-Arg-SSa-Ile-Arg-Pro-Lys)”: the “final HPLC purity” value worked out at 88.2%.

For the substance “PEPTIDE1{Y.G.G.F.L.R.R.I.R.P.K.[am]}$$$$V2.0”, the “final HPLC purity” value was found to be 98.4%.

The data set is the same for the next values; noted with them: whole synthesis, analytical RP-HPLC.
For the substance “PEPTIDE1{Y.[XSSahebb624].G.F.[XAsp4h4ecf53].R.R.[am]}$PEPTIDE1,PEPTIDE1,5:R3-2:R3$$$V2.0”, the “final HPLC purity” value was determined as 98.55%. On the same count and under the same terms, next, c(Tyr-Gly-SSa-Phe-D(Asp)-Arg-Arg): 88.51%. Still for that read-out and setting: next, “c(Tyr-Sar(p-NO2-Phe)-Leu-Arg-D(Arg)-SSa-Arg-D(Asp)-Lys”: 97.95%; “PEPTIDE1{Y.[XAsp1h4ecf53].G.F.[XSSahebb624].R.R.[am]}$PEPTIDE1,PEPTIDE1,2:R3-5:R3$$$V2.0”: 94.71%. With “PEPTIDE1{Y.[XSarh5118e0].[XNO2Fh644d83].L.R.[XNMAh0fabbf].[XSSahebb624].R.[XAsp8h4ecf53].K.[am]}$PEPTIDE1,PEPTIDE1,9:R3-7:R3$$$V2.0”, the “final HPLC purity” value was 96.77%. Still for that read-out and setting: next, “PEPTIDE1{Y.[XSarh5118e0].[XClFh65aecc].L.R.[XNMAh0fabbf].[XSSahebb624].R.[XAsp8h4ecf53].K.[am]}$PEPTIDE1,PEPTIDE1,9:R3-7:R3$$$V2.0”: 93.77%; “PEPTIDE1{Y.G.[XSSahebb624].F.[XAsp4h4ecf53].R.R.[am]}$PEPTIDE1,PEPTIDE1,5:R3-3:R3$$$V2.0”: 90.65%. Same read-out and setting: next, “PEPTIDE1{Y.G.[XAsp2h4ecf53].F.[XSSahebb624].R.R.[am]}$PEPTIDE1,PEPTIDE1,3:R3-5:R3$$$V2.0”: 92.67%. Same read-out and setting: next, “PEPTIDE1{Y.[Sar].[p-Cl-Phe].L.R.[dR].[SSa].D.[am]}$PEPTIDE1,PEPTIDE1,7:R3-8:R3$$$V2.0”: 99.50%; “PEPTIDE1{Y.[XSarh5118e0].[XClFh65aecc].L.R.[dR].[XSSahebb624].R.[XAsp8h4ecf53].K.[am]}$PEPTIDE1,PEPTIDE1,9:R3-7:R3$$$V2.0”: 97.53%; “c(Tyr-Sar-(p-NO2-Phe)-Leu-Arg-NMA-D(Asp)-D(Arg)-SSa-D(Lys))”: 99.25%. As to “PEPTIDE1{Y.G.[dD].F.[SSa].R.R.[am]}$PEPTIDE1,PEPTIDE1,3:R3-5:R3$$$V2.0”, the “final HPLC purity” value was found to be 91.10%.

These data come from US20220089646A1 (THE UNIVERSITY OF QUEENSLAND, priority 2019, published 2022).
